Data as given in PubChem BioAssay AID504774 (Drosophila RNAi Screening Center, 2011).
Assay: 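Genes required for cells to withstand methyl methanesulphonate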 (primary screen). System: Drosophila Kc167 cells. Knock-down reagent: long dsRNA against Drosophila genes, about 0.25 µg dsRNA per well. Duration: about 6 days: 3 days knock-down, then 3 days with or without MMS. Conditions: methyl methanesulphonate 0.004% (w/v) for 3 days after knock-down. Read-out: 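Viability in wells given MMS, read as ATP luminescence, normalised by quantiles plate by plate and averaged across replicates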. Scale: mean viability with MMS: higher = more surviving cells after MMS.
The screen tested about 23,000 reagents; shown is a random part of those with a known target gene and a result. 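Values are quantile-normalised luminescence on an arbitrary scale; higher means more cells surviving MMS.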 The numbers tell different reagents against one gene apart. Not all columns of the deposit are shown.

no.	Gene	dsRNA no.	mean viability with MMS
1	CG2938	1	3.55e6
2	CG33453	1	3.47e6
3	CG1360	1	3.44e6
4	Prdm13	1	3.57e6
5	Tpc1	1	3.65e6
6	Tpc1	2	3.62e6
7	sstn	1	3.41e6
8	CG16985	1	3.59e6
9	CG15202	1	3.59e6
10	klar	1	3.40e6
11	klar	2	3.49e6
12	CG14982	1	3.08e6
13	CG14982	2	3.66e6
14	Obp83g	1	3.57e6
15	Ppat-Dpck	1	3.47e6
16	ana2	1	3.55e6
17	pyr	1	3.45e6
18	pyr	2	3.58e6
19	Arl6	1	3.70e6
20	CG3376	1	3.68e6
21	CG32708	1	3.48e6

Quoted from the listing for reference:
no.	Gene	dsRNA no.	mean viability with MMS
9	CG15202	1	3.59e6
10	klar	1	3.40e6
11	klar	2	3.49e6
12	CG14982	1	3.08e6

Next results:
no.	Gene	dsRNA no.	mean viability with MMS
22	CG34426	1	3.48e6
23	su(Hw)	1	3.62e6
24	Kaz	1	3.56e6
25	CG42709	1	3.53e6
26	awd	1	3.62e6
27	CG14294	1	3.52e6
28	Lac	1	3.49e6
29	mRpS16	1	3.42e6
30	Veneno	1	3.72e6
31	Hr83	1	3.50e6
32	CG14367	1	3.76e6
33	AstA-R2	1	3.59e6
34	CG10418	1	3.40e6
35	trol	1	3.61e6
36	trol	2	3.57e6
37	trol	3	3.52e6
38	trol	4	3.58e6
39	Osbp	1	3.51e6
40	tomboy20	1	3.48e6
41	Cyp4g15	1	3.47e6
42	Kdm4A	1	3.70e6
43	jub	1	3.45e6
44	bou	1	3.50e6
45	CG14636	1	3.57e6
46	mRpS29	1	3.51e6
